# Measurements from PubChem BioAssay AID1488 (Vanderbilt High Throughput Screening Facility, 2009).
# Sequences of proteins named here, by UniProt entry; tags and fusion partners are left off. A change or cut given only in a name is not applied to a line headed by its entry.
# UniProt P08482: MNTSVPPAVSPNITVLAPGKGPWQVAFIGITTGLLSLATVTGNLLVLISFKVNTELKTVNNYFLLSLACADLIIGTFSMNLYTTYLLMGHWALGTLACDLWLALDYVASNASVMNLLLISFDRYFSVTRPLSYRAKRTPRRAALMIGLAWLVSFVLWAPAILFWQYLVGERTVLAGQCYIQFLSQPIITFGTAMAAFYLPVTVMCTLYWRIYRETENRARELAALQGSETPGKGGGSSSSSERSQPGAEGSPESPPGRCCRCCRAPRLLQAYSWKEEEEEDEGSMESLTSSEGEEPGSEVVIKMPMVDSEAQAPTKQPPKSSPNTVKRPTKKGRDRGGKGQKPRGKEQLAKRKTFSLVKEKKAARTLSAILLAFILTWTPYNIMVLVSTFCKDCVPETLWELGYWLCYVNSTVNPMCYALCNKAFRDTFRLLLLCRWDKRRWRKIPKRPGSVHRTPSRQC
# Hit rate of the full screen: of about 1,700 compounds, about 310 (18%) were called active. The shares of active, inactive and inconclusive entries below differ from those in the screen.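 How the source made its calls: active means fluorescence change differs from the solvent-only DMSO control mean at a set confidence level in both duplicate runs; inconclusive means differs from solvent-only control mean in just one of two runs; inactive means the rest.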
# Target: Muscarinic acetylcholine receptor M1 (Rattus norvegicus) (UniProt P08482)
# Test: rat M1 muscarinic receptor agonists, confirmation, CHO-M1 cells, Fluo-4 calcium, duplicate retest (AID 1488);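 further: an EC20 dose of acetylcholine follows compound addition during the same imaging run; raw fluorescence intensity difference in instrument units with no normalization to controls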
# Details: Fluo-4 calcium fluorescence, agonist mode, at 10 µM, actives lie on both sides
row,Structure (SMILES),fluorescence change (max-min)
1,CCOC(=O)CC1=C(C(=O)OCC)C(c2ccc(OC)cc2OC)C(C#N)=C(N)O1 (configuration not stated),inactive: -1.69
2,CC1CN(c2nc3ccccc3nc2C(C#N)C(=O)NC2CCCCC2)CC(C)O1 (configuration not stated),active: -31.3
3,CCn1c(NCCc2ccc(OC)c(OC)c2)nc2c1c(=O)n(C)c(=O)n2C,inconclusive: -13.4
4,Oc1ccccc1C1Nc2cccc3cccc(c23)N1,inconclusive: -16.6
5,CCc1nc2ccccc2n1CC(=O)N1CCN(S(=O)(=O)c2cccc(C(F)(F)F)c2)CC1,inactive: -2.88
6,O=C(Nc1cnc2ccccc2c1)c1cccc(-n2cnnn2)c1,inconclusive: -25.8
7,COc1ccc2nc(N3CCC(O)CC3)c(C#N)cc2c1,active: 198
8,NC(=O)C1CCN(c2ncnc3c2c(-c2ccccc2)cn3-c2ccccc2)CC1,inconclusive: -24
9,CCn1c(CCn2ccnc2C)n[nH]c1=S,active: 225
10,CCN1CC=C2C(C#N)=C(N)C(C#N)(C#N)C(CCc3ccccc3)C2C1 (configuration not stated),active: 247
11,CC1(C)Cc2nc3sc4c(N(CCO)CCO)ncnc4c3cc2CO1,inconclusive: -38.6
12,CN1CC=C2C(C#N)=C(N)C(C#N)(C#N)C(Cc3ccccc3)C2C1 (configuration not stated),active: 98.4
13,COc1cc(-c2nc3cnccn3c2Nc2ccc3c(c2)OCCO3)ccc1O,inactive: -4.2
14,COc1ccccc1NC(=O)CN1CCN(CC(=O)Nc2cc(NC(C)=O)ccc2OC)CC1,inconclusive: -33.9
15,COc1ccc(Cl)c(NC(=O)NCCN2CCN(c3ccccc3)CC2)c1,active: -28.2
16,Nc1c(C(=O)Nc2ccccc2)sc2nc(-c3ccco3)ccc12,inconclusive: -19.2
17,Cc1cc(C(=O)NCCCN2CCN(C3CCCCC3)CC2)n(-c2ccccc2)n1,inactive: 12.9
18,O=C(Nc1cccnc1)c1ccc(Cl)c(S(=O)(=O)N2CCCCCC2)c1,inconclusive: -16.4
19,CC1CCCC(C)N1C(=O)CN1CCN(c2nc(-c3ccc(F)cc3)cs2)CC1 (configuration not stated),inactive: -5.14

row,Structure (SMILES),fluorescence change (max-min)
1,Cc1ccc2occ(C(c3nnnn3C3CCCC3)N3CCN(C(=O)c4ccco4)CC3)c(=O)c2c1 (configuration not stated),inconclusive: -24
2,CC(C)c1cc(CN2CCN(CCC#N)CC2)cc(C(C)C)c1O,inactive: 13.9
3,CCOC(=O)N1CCN(C(=O)CSc2nc3ccccc3c(=O)n2-c2ccccc2)CC1,inconclusive: -18.4
4,CC(C)(C)c1cc(CN2CCN(CCC#N)CC2)cc(C(C)(C)C)c1O,inactive: 23.3
5,Cn1c(CCNC(=O)c2ccco2)nc2cc(NS(=O)(=O)c3ccccc3)ccc21,inconclusive: -25.6
6,Cc1ccc2nc(/C(C#N)=N/O)[nH]c2c1,inconclusive: -15.1
7,COc1ccc(C2CC(=O)N3CN(c4ccc(C)c(Cl)c4)CSC3=C2C#N)cc1OC (configuration not stated),inconclusive: -12.4
8,CCCCc1cc(O)c(CCCC)c(O)c1,active: 275
9,O=C(Nc1nc(-c2ccccc2)cs1)C1CCCN(S(=O)(=O)c2ccccc2)C1 (configuration not stated),inconclusive: -16.5
10,CCN=C1SC(CC(=O)Nc2ccc(N3CCOCC3)cc2)C(=O)N1CC (configuration not stated),inconclusive: -15.7
11,O=C(COc1ccccc1)Nc1ccccc1C(=O)NCc1ccco1,inconclusive: -13.4
12,c1ccc(N2CCN(c3nc4ccccc4n4nnnc34)CC2)cc1,inconclusive: 63.2
13,CCOC(=O)C1CCCN(C(=O)c2cc(Cl)ccc2Cl)C1 (configuration not stated),inactive: 11.2
14,O=C(NC1CCCCCC1)C1CCN(S(=O)(=O)c2ccccc2)CC1,inconclusive: -22
15,O=S(=O)(NCc1ccncc1)c1ccc(Br)s1,inactive: 6.21
16,COc1cccc(-c2nn3c(-c4cccc(C)c4)nnc3s2)c1,inconclusive: -16.3
17,CS(=O)(=O)N1CCC(C(=O)Nc2ccc(Oc3ccccc3)cc2)CC1,inconclusive: -30.1
18,CCC(CC)C(=O)Nc1c2c(nn1-c1ccc(OC)cc1)CS(=O)C2 (configuration not stated),inconclusive: -19.9
19,CC(=O)Nc1c2c3c(cccc3n(C)c1=O)C(=O)c1ccccc1-2,active: 67.9

row,Structure (SMILES),fluorescence change (max-min)
1,O=C(CSc1nnc(-c2ccccc2)n1Cc1ccco1)Nc1ccc2c(c1)OCCO2,inactive: -11.4
2,O=C(C1CCN(Cc2cc(Cl)ccc2O)CC1)N1CCN(Cc2ccccc2)CC1,inconclusive: -18.7
3,COc1ccccc1C(=O)NC(=Nc1nc2ccccc2o1)NC(=O)c1ccccc1OC,inconclusive: -17.8
4,CCOC(=O)C1CCCN(C(=O)CCC(=O)Nc2ccc3nc(N4CCOCC4)cc(C)c3c2)C1 (configuration not stated),inconclusive: -24.6
5,CC(CN1CCOCC1)(NS(=O)(=O)c1ccccc1)c1ccccc1 (configuration not stated),inconclusive: -14.7
6,O=C(O)c1cc(O)c2c(c1)C(=O)c1cccc(O)c1C2=O,active: 189
7,CCOC(=O)C1CCCN(CC(=O)NC2=Nc3ccccc3N=C(C)C2c2ccccc2)C1 (configuration not stated),active: -31.4
8,Clc1ccc(-n2ncc3c(NCC4CCCO4)ncnc32)cc1 (configuration not stated),inconclusive: -18.9
9,CN1C(=O)c2ccc(NC(=O)c3c(F)c(F)c(F)c(F)c3F)cc2C1=O,inactive: 1.53
10,C=C1c2cc(OC)ccc2NC(=O)N1CC,active: 70.8
11,O=C(O)CSc1nnc(CNc2ccccc2Cl)n1-c1ccccc1,inconclusive: -23.6
12,Cc1ccccc1Nc1nc(N)nc(CSc2nc3ccccc3c(=O)n2CCCO)n1,inconclusive: -18.6
13,COc1ccc(OCC(=O)N2CCN(c3nnc(-c4ccccc4)c4ccccc34)CC2)cc1,inconclusive: -23.3
14,CCCCOCCCn1c(-c2ccco2)nc2nc3ccccc3nc21,inconclusive: -19.9
15,CCOC(=O)c1cc2c(=O)n3ccccc3nc2n(Cc2ccco2)c1=NC(=O)c1cccnc1,active: 146
16,C1=CC2CC1CC2CN1CCN(c2ccccc2)CC1 (configuration not stated),inconclusive: -20.5
17,COCCN1C(=O)C(CC(=O)Nc2ccc(C(C)=O)cc2)SC1=Nc1ccccc1 (configuration not stated),inconclusive: -16.4
18,O=c1c2ccccc2c(C=Nc2ccc(Cl)cn2)c(O)n1-c1cc(Cl)ccc1N1CCOCC1,inactive: -10.2
19,CCOC(=O)C1=C(C)N=c2s/c(=C\c3cccn3C)c(=O)n2C1c1cccc(OC)c1OC (configuration not stated),inactive: 3.37

# 16 of the compounds above, tab-delimited.
row	Structure (SMILES)	fluorescence change (max-min)
10	CCN1CC=C2C(C#N)=C(N)C(C#N)(C#N)C(CCc3ccccc3)C2C1 (configuration not stated)	active: 247
11	CC1(C)Cc2nc3sc4c(N(CCO)CCO)ncnc4c3cc2CO1	inconclusive: -38.6
12	CN1CC=C2C(C#N)=C(N)C(C#N)(C#N)C(Cc3ccccc3)C2C1 (configuration not stated)	active: 98.4
13	COc1cc(-c2nc3cnccn3c2Nc2ccc3c(c2)OCCO3)ccc1O	inactive: -4.2
14	COc1ccccc1NC(=O)CN1CCN(CC(=O)Nc2cc(NC(C)=O)ccc2OC)CC1	inconclusive: -33.9
15	COc1ccc(Cl)c(NC(=O)NCCN2CCN(c3ccccc3)CC2)c1	active: -28.2
16	Nc1c(C(=O)Nc2ccccc2)sc2nc(-c3ccco3)ccc12	inconclusive: -19.2
17	Cc1cc(C(=O)NCCCN2CCN(C3CCCCC3)CC2)n(-c2ccccc2)n1	inactive: 12.9
18	O=C(Nc1cccnc1)c1ccc(Cl)c(S(=O)(=O)N2CCCCCC2)c1	inconclusive: -16.4
19	CC1CCCC(C)N1C(=O)CN1CCN(c2nc(-c3ccc(F)cc3)cs2)CC1 (configuration not stated)	inactive: -5.14
1	Cc1ccc2occ(C(c3nnnn3C3CCCC3)N3CCN(C(=O)c4ccco4)CC3)c(=O)c2c1 (configuration not stated)	inconclusive: -24
2	CC(C)c1cc(CN2CCN(CCC#N)CC2)cc(C(C)C)c1O	inactive: 13.9
3	CCOC(=O)N1CCN(C(=O)CSc2nc3ccccc3c(=O)n2-c2ccccc2)CC1	inconclusive: -18.4
4	CC(C)(C)c1cc(CN2CCN(CCC#N)CC2)cc(C(C)(C)C)c1O	inactive: 23.3
5	Cn1c(CCNC(=O)c2ccco2)nc2cc(NS(=O)(=O)c3ccccc3)ccc21	inconclusive: -25.6
6	Cc1ccc2nc(/C(C#N)=N/O)[nH]c2c1	inconclusive: -15.1
